The results in this text go back to patent US6518397B1, “Pharmaceuticals for modulating hormone responsiveness” (priority 1995, dated 2003).

By UniProt entry, the sequences of proteins in these tests, tags left out. Residues count along the entry.
UniProt P15207, residues 533-637: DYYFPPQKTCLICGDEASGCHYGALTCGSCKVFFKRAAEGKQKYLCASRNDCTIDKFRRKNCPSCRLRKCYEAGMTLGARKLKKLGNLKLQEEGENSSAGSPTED

The test has as its target DNA binding domain of recombinant rat androgen receptor, GST-fusion protein (rat) (UniProt P15207). In words: gel retardation.

No constants are given. Whether binding was seen depends on the method and setting. Some entries that bind do so weakly or less than the wild type.

Consider “p60 (calreticulin) purified from human osteosarcoma (HOS) cells by affinity chromatography on KLGFFKR-sepharose (from UniProt P27797 18-417)”, for which the binding result was “binds”.
